{"sequences": {"note": "Sequences of proteins named here, by UniProt entry; tags and fusion partners are left off. Residues count along the entry.", "UniProt P01556, residues 22-124": "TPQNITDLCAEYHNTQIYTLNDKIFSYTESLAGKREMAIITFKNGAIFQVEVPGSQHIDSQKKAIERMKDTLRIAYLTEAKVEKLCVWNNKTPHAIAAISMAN"}, "source": "paper PMC12656476", "biological_target": "CTB from V. cholerae (reference) (Vibrio cholerae) (UniProt P01556)", "assay": "native gel or EMSA; both purified", "note": "No constants are given. Whether binding was seen depends on the method and setting. Some results given as binding are weak or reduced against the parent protein; the word gives no strength."}
{"substance": "CTB from V. cholerae (reference) (from UniProt P01556 22-124)", "values": [{"measurement": "binding", "value": "binds"}]}
